Results are given in words; binding and its absence hold for the method and conditions named. For some of these results: In cells and extracts the contact can be indirect. Some results given as binding are weak or reduced against the parent protein; the word gives no strength. For some of these results: Where a sequence is shown, tags or fusion partners need not be part of it.
Experiments:
[1] = target: T1, cleavage stimulation factor 50 (CstF-50) (human (endogenous in HeLa)) (UniProt Q05048); assay: co-IP; endogenous IP with anti-CstF-50 from HeLa nuclear extracts (100 ug total protein), cells untreated or UV (40 J m^-2, 2 h recovery); samples treated with RNase A; immunoblot
T1 sequence: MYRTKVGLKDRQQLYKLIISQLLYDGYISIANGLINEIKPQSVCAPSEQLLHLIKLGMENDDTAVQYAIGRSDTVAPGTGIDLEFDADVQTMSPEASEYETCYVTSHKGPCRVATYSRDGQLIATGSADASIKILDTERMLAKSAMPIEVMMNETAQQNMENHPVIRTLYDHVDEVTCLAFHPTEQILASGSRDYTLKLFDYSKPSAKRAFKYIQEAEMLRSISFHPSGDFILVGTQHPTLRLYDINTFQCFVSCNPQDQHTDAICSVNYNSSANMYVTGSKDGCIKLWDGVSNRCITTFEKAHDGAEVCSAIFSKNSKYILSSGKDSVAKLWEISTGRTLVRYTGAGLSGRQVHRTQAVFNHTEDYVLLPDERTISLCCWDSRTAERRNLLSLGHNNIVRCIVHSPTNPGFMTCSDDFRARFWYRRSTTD

Protein sequences, listed by entry. Tags and fused reporters are not part of them. Lines headed by an entry give the natural chain unless they say otherwise; changes in a name come on top.
UniProt P38398: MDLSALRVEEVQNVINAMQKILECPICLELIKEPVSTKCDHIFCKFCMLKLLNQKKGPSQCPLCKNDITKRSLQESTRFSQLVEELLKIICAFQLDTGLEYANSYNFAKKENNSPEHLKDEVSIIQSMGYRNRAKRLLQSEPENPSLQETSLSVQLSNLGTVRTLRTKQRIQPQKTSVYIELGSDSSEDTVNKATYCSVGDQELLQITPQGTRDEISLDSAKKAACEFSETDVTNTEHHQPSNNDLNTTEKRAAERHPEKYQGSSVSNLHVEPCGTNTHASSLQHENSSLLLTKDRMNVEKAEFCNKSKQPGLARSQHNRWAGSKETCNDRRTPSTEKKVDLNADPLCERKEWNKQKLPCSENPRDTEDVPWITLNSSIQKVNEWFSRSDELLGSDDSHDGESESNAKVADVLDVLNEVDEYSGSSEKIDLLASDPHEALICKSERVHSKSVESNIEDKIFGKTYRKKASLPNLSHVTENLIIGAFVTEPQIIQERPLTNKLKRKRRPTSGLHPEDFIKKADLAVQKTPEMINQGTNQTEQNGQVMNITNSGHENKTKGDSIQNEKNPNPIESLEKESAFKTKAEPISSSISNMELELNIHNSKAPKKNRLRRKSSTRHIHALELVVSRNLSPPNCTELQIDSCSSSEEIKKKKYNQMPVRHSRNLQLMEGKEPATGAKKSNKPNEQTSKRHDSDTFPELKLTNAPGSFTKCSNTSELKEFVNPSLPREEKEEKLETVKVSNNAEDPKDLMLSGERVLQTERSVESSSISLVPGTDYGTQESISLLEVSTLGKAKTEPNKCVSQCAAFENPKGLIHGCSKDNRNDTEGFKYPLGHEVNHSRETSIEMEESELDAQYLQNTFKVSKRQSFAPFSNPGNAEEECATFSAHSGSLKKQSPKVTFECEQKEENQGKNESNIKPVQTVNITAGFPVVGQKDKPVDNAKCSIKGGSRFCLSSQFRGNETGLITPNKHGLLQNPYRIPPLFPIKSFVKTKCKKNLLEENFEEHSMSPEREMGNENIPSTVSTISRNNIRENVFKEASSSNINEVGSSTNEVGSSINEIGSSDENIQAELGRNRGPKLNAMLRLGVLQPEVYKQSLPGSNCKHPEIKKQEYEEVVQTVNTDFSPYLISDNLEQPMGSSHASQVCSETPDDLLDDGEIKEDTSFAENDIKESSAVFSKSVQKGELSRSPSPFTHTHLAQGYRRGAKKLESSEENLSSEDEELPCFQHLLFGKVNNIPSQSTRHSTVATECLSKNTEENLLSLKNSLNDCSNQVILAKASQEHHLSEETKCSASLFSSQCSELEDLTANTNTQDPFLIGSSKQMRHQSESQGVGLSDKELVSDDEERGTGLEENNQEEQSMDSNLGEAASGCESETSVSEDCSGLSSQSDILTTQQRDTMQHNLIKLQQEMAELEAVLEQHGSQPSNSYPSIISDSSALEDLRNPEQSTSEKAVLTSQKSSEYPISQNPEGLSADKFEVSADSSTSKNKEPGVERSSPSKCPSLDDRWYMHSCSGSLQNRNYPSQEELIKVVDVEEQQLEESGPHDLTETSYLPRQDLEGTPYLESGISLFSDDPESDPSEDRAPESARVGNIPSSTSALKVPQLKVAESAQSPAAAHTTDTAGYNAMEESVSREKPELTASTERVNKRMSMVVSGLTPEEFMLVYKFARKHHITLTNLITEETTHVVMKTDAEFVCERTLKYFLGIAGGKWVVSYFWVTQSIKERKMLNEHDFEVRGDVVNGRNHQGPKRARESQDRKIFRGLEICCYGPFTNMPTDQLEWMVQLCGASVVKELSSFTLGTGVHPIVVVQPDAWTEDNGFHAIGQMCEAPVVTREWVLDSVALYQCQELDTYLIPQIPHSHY

[2] = target: T2, GST-CstF-50 (UniProt Q05048); assay: pull-down; GST-CstF-50 on glutathione beads incubated with 1 ug His-p97, and His-p97 on nickel beads incubated with GST-CstF-50; recombinant proteins treated with RNase A; Western blot; both purified
T2 sequence: T1 sequence

[3] = target: ubiquitin escort factor p97 (human (endogenous in HeLa)) (UniProt P55072); assay: co-IP; endogenous IP with anti-p97 from HeLa nuclear extracts (100 ug total protein), cells untreated or UV (40 J m^-2, 2 h recovery); samples treated with RNase A; immunoblot

binding [1] | Substance | other results
binds | ubiquitin escort factor p97 (from UniProt P55072 1-806) | –
binds | BRCA1/BARD1 heterodimer (endogenous) (from UniProt P38398 1-1863; Q99728 1-777) (complex) | –
– | His-p97 (from UniProt P55072 1-806) | binding [2]: binds
– | cleavage stimulation factor 50 (CstF-50) (from UniProt Q05048 1-431) | binding [3]: binds

Source: publication PMC5789026
